# Measured values published in the supplement of paper PMC3334620.
# Over roughly 33,000 sequences, “E-score (-0.5 to 0.5)” has its median near -0.0014; the highest 2% begin near 0.25. This is one part of the list.
# Target: T1, Cad1 (UniProt P24813)
# T1 sequence: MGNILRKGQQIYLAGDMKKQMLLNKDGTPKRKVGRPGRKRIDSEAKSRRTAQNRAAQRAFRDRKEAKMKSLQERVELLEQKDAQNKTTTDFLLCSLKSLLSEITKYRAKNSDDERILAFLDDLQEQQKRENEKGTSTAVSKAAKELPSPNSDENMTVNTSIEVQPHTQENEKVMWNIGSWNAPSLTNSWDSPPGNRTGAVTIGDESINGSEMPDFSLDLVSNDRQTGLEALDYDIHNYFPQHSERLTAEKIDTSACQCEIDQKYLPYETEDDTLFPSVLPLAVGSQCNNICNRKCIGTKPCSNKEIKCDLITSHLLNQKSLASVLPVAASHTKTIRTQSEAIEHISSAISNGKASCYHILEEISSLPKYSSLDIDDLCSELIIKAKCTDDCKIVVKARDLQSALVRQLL
# Assay: PBM E-score (8-mer binding enrichment) (E-score (-0.5 to 0.5)); higher = stronger / more preferred TF binding
# Settings: protein concentration: 100 nM; construct: GST-full length
# Method in brief: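 PURExpress in vitro transcription/translation supplied GST-tagged yeast transcription factors, either full-length or DNA-binding domain. Applied at about 100-200 nM to universal all-10-mer Agilent arrays double-stranded by primer extension, the bound protein was detected with fluorescent anti-GST. E-scores, modified Wilcoxon-Mann-Whitney statistics, were given by the Universal PBM Analysis Suite to ungapped eight-base words pooled with their reverse complements after masliner normalisation.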
row,Sequence,PBM E-score
1,GATGGGAA,-0.27
2,CATCGATC,0.0949
3,CAGACGCA,0.0311
4,CGGTAACG,-0.0233
5,GGCGAGCC,-0.0683
6,CGGCCTAA,-0.0467
7,AGATGAAA,0.02
8,CTAGCGAA,-0.235
9,GATGGGCA,0.0201
10,GGTTCCTA,-0.00232
11,ACAAGAGG,-0.182
12,CAAGTCAA,0.0242
13,ACAGTCCA,0.129
14,TAATGCTA,0.234
15,GTGGCTCA,-0.0505
16,CAACCATG,0.109
17,AGCTTGAG,-0.123
18,CCGCGGCA,0.168
19,CGCTTCCC,-0.206
20,TAGTAGCA,0.0478
21,AAAATCTG,0.159
22,AAAGCACC,-0.0654
23,ATCTGTGA,0.103
24,CGTATGAG,-0.0984
25,ATCTCCAG,0.155

row,Sequence,PBM E-score
1,GCCTCGGA,-0.0438
2,ACACACAT,0.0505
3,GACTCTCA,-0.0683
4,CAGTTGAG,-0.0801
5,GGTTCTTA,-0.0816
6,AGATCACT,0.004
7,GCTGCGAA,0.0915
8,CGACACAA,-0.0965
9,ACACAGCC,0.0823
10,AGGTCGTC,-0.0601
11,AATCACAT,0.062
12,AAGTACTT,-0.144
13,CAGATAGC,-0.113
14,GGCCGGGA,-0.0809
15,TACGTCTA,0.00372
16,TGTTAACA,0.159
17,ACTTTTAG,0.022
18,CATCTAGA,0.062
19,ATGGTCGC,-0.127
20,CATTGGCC,-0.231
21,GGATATAA,0.132
22,CCTACCCA,-0.157
23,GCTAGGAC,-0.0799
24,TCCCTCAA,-0.0739
25,ACGTGTCG,-0.0411

row,Sequence,PBM E-score
1,GATTCGGA,0.177
2,CCATGATA,-0.0251
3,AGAGACCT,-0.104
4,ATACTCAG,0.243
5,ACATAAGC,0.107
6,GTGCACCA,-0.0263
7,CGAGCTAA,-0.0827
8,AGGCCTAT,-0.0221
9,GCTAATGA,-0.0534
10,GATGCAAA,-0.0932
11,GCTGAGAC,0.156
12,AGACGGCT,-0.183
13,GCCGGGTA,-0.165
14,ACACTTGC,0.0216
15,GTATAACA,0.0937
16,GGCGTGAC,-0.0779
17,GATGCCGA,0.0131
18,GCTGGAGA,-0.0864
19,AACATCCT,-0.104
20,AAACCGGT,0.0496
21,CCGGTTCA,-0.177
22,CGTCCGGC,0.108
23,GAAGAGGC,-0.191
24,ATCCAACC,-0.0228
25,AGCGTAGG,-0.146

# Rewritten with tabs: part of the list above
row	Sequence	PBM E-score
6	GTGCACCA	-0.0263
7	CGAGCTAA	-0.0827
9	GCTAATGA	-0.0534
13	GCCGGGTA	-0.165
21	CCGGTTCA	-0.177
24	ATCCAACC	-0.0228
25	AGCGTAGG	-0.146

# More results

row,Sequence,PBM E-score
1,GCGGTCCA,-0.101
2,GAGGTCAA,-0.0204
3,ATGGTTCA,0.0602
4,CGGAAGGA,-0.0431
5,ACTGATAC,-0.0948
6,ATTGACAC,0.0055
7,AAATCTGC,0.0434
8,GCTCGCCC,-0.0659
9,AACCCGTA,-0.0712
10,CTGAGCGC,0.0445
11,AAGGAGTC,-0.203
12,CTAGCATA,-0.0751
13,GATAACTA,0.1
14,AAAATGCC,0.0875
15,CTTGATCC,0.00678
16,AAATGGTA,0.161
17,GTTCACAA,0.0957
18,CCTTAGAA,-0.113
19,CCCATACG,-0.226
20,AGATTCAA,0.0464
21,CAATATTG,0.239
22,AATTGTCA,0.161
23,CGGGGCCC,-0.0797
24,TAGACAGA,0.0711
25,ACCGATTG,0.201

row,Sequence,PBM E-score
1,GTAACGAA,0.143
2,AACATGCT,0.0561
3,CAGCCAGA,-0.15
4,GAAAGCTC,-0.312
5,AAAAGAGT,-0.165
6,AGAGAGGC,-0.297
7,CGTATGCA,0.0795
8,CTGGCATA,0.0405
9,TCTAGTCA,-0.0499
10,CACCACGC,-0.155
11,CATAAGCC,0.0914
12,CAACGAGG,0.0732
13,GTACATGA,-0.0468
14,GAGGGTCA,-0.25
15,TGCTCAAA,-0.149
16,CAACGAGA,0.035
17,CCGCGGTA,0.142
18,GCTCTTAC,0.19
19,ATATCGAG,0.134
20,ACGAAGCA,0.0556
21,GACTGAGC,-0.179
22,CATCATAC,0.0209
23,ATTATCGA,0.107
24,GGGGTCGA,-0.114
25,GCAAATAC,0.0468

row,Sequence,PBM E-score
1,CCCTCCTA,-0.207
2,AATGCTCT,-0.0761
3,AATGTTTG,-0.00136
4,GATGGAAC,-0.0151
5,GCCTAGTA,-0.147
6,CATTATAA,0.104
7,AGAGTTAC,-0.204
8,AAGCATAG,-0.278
9,ACAGTTGG,-0.0629
10,ATCCTAAG,-0.0893
11,GTTTCCTA,0.0519
12,ACAGCAAC,0.198
13,CGTATCAC,0.148
14,CATTGTAC,0.0995
15,AAAACGGA,0.121
16,GATACAAA,0.199
17,AAAGACGT,0.0499
18,CATGGTAG,-0.0532
19,CAGCGGGG,-0.126
20,AAGCGTGG,0.0305
21,CCAATACG,-0.014
22,GACACGGA,0.123
23,AAGAAATT,0.235
24,GACCTACA,-0.0764
25,AGAACGCT,-0.0822

row,Sequence,PBM E-score
1,CTGCAATA,-0.0664
2,GAGATACA,0.184
3,AGGATCAG,-0.0986
4,TTCCAGAA,0.0621
5,CTTACCCA,0.123
6,TGTGACAA,0.0395
7,GGATTACC,0.108
8,GATAGGAA,0.0138
9,ACTTCAGC,0.0563
10,ACTTGTCA,0.0733
11,CGGAGGAC,-0.199
12,AACGGGTA,0.0638
13,AAAAGTAG,-0.0506
14,CACCGACA,-0.0582
15,AGAGTGAG,-0.0546
16,AGCAAGAC,-0.063
17,AAACACAA,0.201
18,ACACGCCG,0.126
19,GTGCCCGA,-0.0847
20,AAGTACTG,0.0463
21,AGACGCGA,0.0876
22,CTTGCGTA,0.132
